# Library screening results

Sequences of proteins named here, by UniProt entry; tags and fusion partners are left off.
UniProt E9BF75, entry or part of it: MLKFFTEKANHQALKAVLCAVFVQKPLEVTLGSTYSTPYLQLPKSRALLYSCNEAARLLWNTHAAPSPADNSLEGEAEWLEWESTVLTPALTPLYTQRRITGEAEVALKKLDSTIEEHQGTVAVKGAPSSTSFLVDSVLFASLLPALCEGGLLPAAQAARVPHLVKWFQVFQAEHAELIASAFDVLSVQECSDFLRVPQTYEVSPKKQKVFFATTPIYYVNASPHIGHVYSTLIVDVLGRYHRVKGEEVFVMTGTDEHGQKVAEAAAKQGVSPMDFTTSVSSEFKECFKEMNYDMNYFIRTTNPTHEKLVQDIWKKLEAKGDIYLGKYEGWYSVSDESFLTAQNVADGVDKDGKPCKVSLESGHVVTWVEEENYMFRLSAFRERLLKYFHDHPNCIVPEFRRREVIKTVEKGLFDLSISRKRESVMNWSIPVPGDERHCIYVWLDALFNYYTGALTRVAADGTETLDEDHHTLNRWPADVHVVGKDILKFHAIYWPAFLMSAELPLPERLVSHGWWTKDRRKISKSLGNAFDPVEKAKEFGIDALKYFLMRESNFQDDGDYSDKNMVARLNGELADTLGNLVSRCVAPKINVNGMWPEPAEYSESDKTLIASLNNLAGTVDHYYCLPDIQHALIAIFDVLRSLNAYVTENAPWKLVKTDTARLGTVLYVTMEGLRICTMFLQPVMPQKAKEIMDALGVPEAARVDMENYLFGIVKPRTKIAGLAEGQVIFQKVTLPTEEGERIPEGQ

Mtb heat-shock: 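Assay on Mycobacterium tuberculosis, filed only as a heat shock assay from Cornell; the read-out is not stated. The concentration is filed as 10 mM, unlikely as a test dose, so the dose is not known. The record gives no direction; compounds that gave an IC50 in retests scored well above the rest, so higher reads as stronger inhibition. Size under these conditions: about 69,000 compounds, about 930 of them at 50% or above in at least one test.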
LdMetRS: 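Methionyl-tRNA synthetase (putative), Leishmania donovani (UniProt E9BF75). Primary screen of methionyl-tRNA synthetase; the read-out is not stated. The test concentration is not given. Values are per cent inhibition. About 68,000 compounds were tested under these conditions; 0.035% (about 24) showed 50% or more at least once.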
Mtb growth Cornell: 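Whole-cell assay for inhibitors of Mycobacterium tuberculosis growth, labelled Cornell in the record; the read-out is not stated. The concentration is filed as 10 mM, unlikely as a test dose, so the dose is not known. Higher means stronger inhibition (inferred from two other growth screens of the library). Size under these conditions: about 53,000 compounds, about 900 of them at 50% or above in at least one test.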

Results are percentages, as filed.
The controls that fix the scale are not given in the record; negative values are as filed.
Compounds were drawn at random from those tested, without regard to their results.
A dash means the value is not listed here; it may have been measured.

| compound | Mtb heat-shock | LdMetRS | Mtb growth Cornell |
|---|---|---|---|
| `Cc1nn(C)cc1C(=O)N1CCCC(c2nccn2CC2CCC2)C1` (centres undefined) | -2.148 | 15.09 | 13.39 |
| `O=C(O)CCn1ccc(=O)c2cc(F)ccc21` | 2.827 | 17 | 28.52 |
| `CC(C)CCN1CCCC(Cn2cc(CCO)nn2)C1` (centres undefined) | 9.289 | 7.143 | - |
| `CC(CCn1cccn1)N1CCC(n2cc(C(C)(C)N)nn2)CC1` (centres undefined) | -1.502 | 12.71 | - |
| `CC1COc2ccccc2N1C(=O)CCc1cscn1` (centres undefined) | 15.81 | 59.01 | - |
| `Cn1c(=O)n(C)c2cc(C3SCC(=O)Nc4ccsc43)ccc21` (centres undefined) | 5.326 | 9.544 | - |
| `FC(F)(F)c1ccc2[nH]c([C@H]3CCNC3)nc2c1` | -4.869 | 9.023 | -2.29 |
| `COc1ccccc1-c1nnc2n1NC(N)=C(C#N)S2` | -4.386 | 4.082 | 6.444 |
| `O=C(Cn1nc2c(cc1=O)CCCC2)N[C@@H](Cc1ccccc1)C(=O)O` | 17.7 | 4.564 | - |
| `Cc1cc2cccc(C(=O)N3CCOC(CCN(C)C)C3)c2o1` (centres undefined) | 9.852 | 10.15 | - |
| `CCCNc1ncc(CN2CCN(C)C(=O)C2C)cn1` (centres undefined) | -3.725 | -1.423 | 13.11 |
| `Nc1nccnc1C(=O)N(Cc1ccco1)CC1CCCO1` (centres undefined) | 7.791 | 12.32 | 18.98 |
| `O=C(NCCN1CCCC1)c1nc2c(o1)CN(C(=O)c1cccnc1)C2.O=C(O)C(F)(F)F.O=C(O)C(F)(F)F` | -42.88 | - | 18.97 |
| `Cc1ccsc1C(=O)NC(C)c1ccc2c(c1)CCC(=O)N2` (centres undefined) | 30.15 | 15.96 | 24.54 |
| `Cc1nc(CN2CCC3(CC2)NC(=O)CC3c2ccccc2)cs1` (centres undefined) | - | 16.5 | - |
| `O=C(NCc1nc(C2CC2)no1)N1CCOC(c2cccc(F)c2)C1` (centres undefined) | -7.974 | 8.273 | -9.086 |
| `Cc1ccc(C(=O)N(Cc2ccc(F)cc2)C2CC2)c(=O)[nH]1` | 14.74 | 11.41 | -9.659 |
| `CCOC1COC2(CCN(Cc3ccco3)CC2)C1` (centres undefined) | - | -0.5556 | - |
| `CCC(O)CN1CCN(C(=O)c2ccnc(N(C)C)c2)CC1` (centres undefined) | 3.008 | 12.68 | - |
| `CN1CCN(Cc2cn3c(n2)CN(C(=O)N2CCOCC2)CC3)CC1.O=C(O)C(F)(F)F.O=C(O)C(F)(F)F` | -36.45 | - | 14.54 |
| `[H][C@]12CCN(Cc3cnc(-c4cccc(OC)c4)s3)C[C@]([H])(CC1)N2` | 13.34 | - | - |
| `C1CC(CO[C@@H]2CC[C@H]3[C@H]2OCCN3CC2CC2)CCO1` | - | 16.77 | - |
| `Cc1cccc2nc(CNC(=O)N3CCC(OCC4CC4)CC3)cn12` | -20.52 | 3.161 | -25.24 |
| `Cc1ccc(C(=O)NC2CCN(C(=O)Nc3ccncc3)CC2)o1` | 12.93 | 19.89 | - |
| `Cc1oc(-c2ccoc2)nc1CN1CCC[C@H]1CO` | 8.233 | 14.05 | 20 |
| `CC/C=C(/C)C(=O)N1CCN(C2=NCC(C)S2)CC1` (centres undefined) | 2.494 | 15.03 | 16.03 |
| `Cc1nc(CN2CCCC(NCc3cccc(C(N)=O)c3)C2)no1` (centres undefined) | -7.542 | 16.76 | - |
| `COc1ccccc1Cc1cc(O)nc(NC(C)CN(C)C)n1` (centres undefined) | -8.259 | 19.18 | 17.21 |
| `CCCc1nc(C(=O)N2CCN(C(=O)OC)CC2)cs1` | -7.758 | 13.31 | 31.81 |
| `COCCCN(Cc1ccccn1)S(=O)(=O)c1ccc(OC)cc1` | 5.918 | 4.348 | -5.527 |
| `CCOC(=O)N1CCC(NC(C)Cc2cc(C)n[nH]2)CC1` (centres undefined) | -8.585 | 10.74 | -9.856 |
| `Cc1cc(NC(=O)NCC2COc3ccccc3C2)no1` (centres undefined) | -37.02 | 3.757 | -39.64 |
| `COc1ccc(-c2cnc(CN3CCCC3CO)o2)cc1` (centres undefined) | -6.355 | 12.4 | -11.69 |
| `CCc1nnc2n1CCN(C(=O)Cc1nc(-c3ccco3)oc1C)C2` | -19.82 | 5.352 | - |
| `CCC1CN(c2cnn(C)c(=O)c2Cl)CCO1` (centres undefined) | 34.35 | 3.191 | 19.76 |
| `O=C1CO[C@@H]2CN(CC3CCOCC3)C[C@H]2N1CC1CC1` | - | 19.19 | - |
| `CCN(CC)c1ncc(CNC2CCc3ncnn3C2)s1` (centres undefined) | 0.07548 | 11.63 | 5.356 |
| `Cc1cccc(CO[C@@H]2CC[C@H]3[C@H]2OCCN3Cc2ccoc2)n1` | - | 15.5 | - |
| `CCN(C(c1cccnc1)c1ccc2c(c1)CCC2)S(C)(=O)=O` (centres undefined) | -26.1 | 2.902 | -3.788 |
| `O=C(c1cccc(F)c1)N1CC[C@@H]2CN(c3ncccn3)CCO[C@@H]2C1` | - | 7.463 | - |
| `CN(C(=O)Cc1ccc(NC(=O)NC2CCC2)cc1)c1ccccc1` | -8.633 | 14.79 | -11.22 |
| `Cc1cccnc1CN1CCN(C(=O)CCn2ccccc2=O)CC1` | -12.78 | -2.667 | - |
| `O=C(NCc1nn(-c2ccccc2)c2c1CCC2)N1CCCC(O)C1` (centres undefined) | 6.057 | 14.74 | - |
| `Nc1nccc(C2CCN(CC3CC3)C2)n1` (centres undefined) | 9.61 | 4.43 | -13.39 |

4 of the entries, repeated:

| compound | Mtb heat-shock | LdMetRS | Mtb growth Cornell |
|---|---|---|---|
| `O=C(NCc1nc(C2CC2)no1)N1CCOC(c2cccc(F)c2)C1` (centres undefined) | -7.974 | 8.273 | -9.086 |
| `CC(CCn1cccn1)N1CCC(n2cc(C(C)(C)N)nn2)CC1` (centres undefined) | -1.502 | 12.71 | - |
| `CCN(C(c1cccnc1)c1ccc2c(c1)CCC2)S(C)(=O)=O` (centres undefined) | -26.1 | 2.902 | -3.788 |
| `CCCc1nc(C(=O)N2CCN(C(=O)OC)CC2)cs1` | -7.758 | 13.31 | 31.81 |

The values are deposited in ChEMBL (CHEMBL3988442, “University of Dundee, Small-Polar-MMV Screening Library” (2021)).